Screening data, single-dose tests

Each number is a percent effect as filed. The controls that fix the scale are not given in the record; negative values are as filed. This is an unselected part of the compounds tested. Two or more numbers in one place are separate tests of the same structure; such repeats can differ widely.

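Whole-cell growth test on Mycobacterium tuberculosis, read after 4 days in a medium based on cholesterol and the lipid DPPC; the read-out is not stated. Compounds at 50 µM. The record gives no direction; compounds that gave an IC50 in retests scored well above the rest, so higher reads as more growth inhibition. About 69,000 compounds were tested under these conditions; 0.54% (about 370) showed 50% or more at least once.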

| compound | Percent Effect |
|---|---|
| `CNC(=O)C1(c2cnccn2)CCCN1C(=O)c1ccccc1C` (centres undefined) | -12.6 |
| `CCN(CC)S(=O)(=O)CCNc1nnc(C(C)C)s1` | -11.85 |
| `CN(C(=O)Cc1ccc(F)cc1)C1CCN(c2ccccn2)CC1` | 18.76 |
| `O=C(c1ccc(CNC2CCSC2)cc1)N1CCCC1` (centres undefined) | -26.44 |
| `Cc1noc(C2CCCN(Cn3cc(Br)cn3)C2)n1` (centres undefined) | -6.463 |
| `Cc1ccccc1C1CCCN1C(=O)CN1CC2(CCNCC2)OC1=O` (centres undefined) | 28.95 |
| `COc1cccc(NC(C(N)=O)c2ccc(Br)cc2)c1` (centres undefined) | -3.01 |
| `Cc1cnn(CC(C)NCc2cc(=O)n3cc(C)ccc3n2)c1` (centres undefined) | -3.662 |
| `COc1nccc(N2CC[C@H](N3CCOCC3)[C@H](CCCO)C2)c1C#N` | -0.07673 |
| `O=C(O)C(F)(F)F.[H][C@@]12COC[C@]1(c1nnc(C)o1)CN(Cc1cccs1)C2` | -15.78 |
| `CCN1CCCC(NC(=O)CCn2c(C(F)F)cc3cccnc32)C1` (centres undefined) | 12.75 |
| `CSCc1noc(CNC(=O)C2CCN(C(=O)C3CCC3)CC2)n1` | 12.63 |
| `Cc1cc(F)ccc1-n1cc(O)c(C(N)=O)n1` | 6.839 |
| `COCC(=O)N1CCCN(c2ncnc3c2CCNCC3)CC1` | 5.754 |
| `Cc1nnc(CN2CCCC2c2cccc(Br)c2)o1` (centres undefined) | 21.9 |
| `CC(=O)N1CC2C[C@]2(NC(=O)c2ccco2)C1` (some centres undefined) | -24.36 |
| `O=C(O)c1nnn(-c2cccc(C(F)(F)F)c2)c1-c1ccncc1` | -17.26 |
| `Cn1ccnc1C(=O)N1CCOC(Cc2ccccc2Cl)C1` (centres undefined) | -6.342 |
| `Cc1cnc(-c2nc(O)c3c(n2)CN(C(=O)C2CCCC2)CC3)cn1` | 6.783 |
| `O=C(NC1CCS(=O)(=O)c2ccccc21)c1sccc1C1CC1` (centres undefined) | -17.24 |
| `CCN(CC)S(=O)(=O)c1ccc(CNC(=O)N2CCCCCC2)cc1` | -15.22 & -8.672 |
| `O=C(Cc1ccsc1)N1CCn2cc(Cn3cncn3)nc2C1` | -4.507 |
| `C[C@H](NC(=O)c1cnc(-c2ccccc2)nc1O)C(N)=O` | 16.53 |
| `[H][C@@]12CS(=O)(=O)C[C@]1([H])N(Cc1nccn1CC)CCN2Cc1ccc(C)o1` | 13.79 |
| `O=C(c1csc(-c2nnc[nH]2)n1)N1CCCCC1Cn1cccn1` (centres undefined) | 10.88 |
| `NC(=O)Nc1cccc(Oc2ccccn2)c1` | -2.163 |
| `CCc1nc(CN2CCc3c(ncn3C3CC3)C2)cs1` | 0.9146 |
| `COc1cc(CNC(=O)c2csc(Br)c2)ccn1` | 3.284 |
| `NC(=O)CN1CCCCC1c1ccc(-n2ccnc2)nc1` (centres undefined) | -1.218 |
| `Cc1cc(C)n(CC2CN(c3ncnc4[nH]ccc34)CCO2)n1` (centres undefined) | 1.023 |
| `CN(C)CCN1CCN(C(=O)c2ccn(C)c(=O)c2)CC1` | -31.34 |
| `Cc1csc(-c2cccc(NC(=O)N3CCOCC3)c2)n1` | -8.849 |
| `NCCO[C@H]1C[C@@H](O)C12CCN(C(=O)COc1cccc(Cl)c1)CC2` | -23.19 |
| `CSc1ccc(NC(=O)NCC(O)C2CC2)cc1F` (centres undefined) | -9.967 |
| `[H][C@@]12CN(C(=O)c3ccncc3)C[C@]1([H])OCCN2Cc1csc(C)n1` | -4.813 |
| `CN(C)C(=O)NCc1ncn2c1CN(Cc1cccs1)CCC2.O=C(O)C(F)(F)F.O=C(O)C(F)(F)F` | 15.21 |
| `COc1cccc(CN2CCN(c3cccc(C(C)C)n3)CC2)c1F` | 11.99 |
| `Cc1cc(C(=O)N2CCCC(N3CCCCCC3)C2)nn1C(C)(C)C` (centres undefined) | 6.524 & 7.807 |
| `CN(C)C(=O)N1CCc2c(COCC3CC3)cncc2C1` | -31.78 |
| `Cn1cc(S(=O)(=O)NCC2CCN(C(=O)c3ccoc3)CC2)cn1` | 16.35 |
| `Cc1cnccc1CN(C)C1CCN(c2ncnc3[nH]cnc23)CC1` | -13.16 |
| `COc1ccccc1-c1nnc([C@H]2CCN(C(C)=O)C2)o1` | 9.74 |
| `CS(=O)(=O)N1CCC(Cc2cnc(Br)cn2)CC1` | 0.3891 |
| `CN(Cc1cnn(C)c1)S(=O)(=O)N1CCc2ccccc2C1` | -5.522 & 8.456 |
| `CC(C)c1sc(Cl)nc1C(=O)NCc1ccncc1` | -3.149 |
| `CC(C)(C)CNS(=O)(=O)C1CS(=O)(=O)c2ccccc21` (centres undefined) | -18.2 |
| `CC(C)(C)n1cc(CNc2ccc(CNS(C)(=O)=O)cc2)cn1` | -13.82 |
| `O=C(O)C(F)(F)F.[H][C@@]12CN(Cc3ccc(C)o3)C[C@H](C(=O)N3CCCCO3)[C@]1([H])CCO2` | 12.02 |
| `Cc1nc(NC(=O)c2nn(-c3ccc(F)cc3C)cc2O)n[nH]1` | 16.95 |
| `CC(NC(=O)Cn1cccnc1=O)c1ccc(C(F)(F)F)cc1` (centres undefined) | 8.743 & -181 |
| `[H][C@@]12CN(c3ncccc3Cl)C[C@]1(C(=O)O)CN(CC1CC1)C2=O` | 5.014 |
| `CN(C)C(=O)N1CCC2(CCC(C(=O)N3CCCC3)O2)CC1` (centres undefined) | 3.338 |
| `N#CC1(NC(=O)COc2cc(Cl)cc(Cl)c2)CCSC1` (centres undefined) | 6.664 |
| `COc1ccccc1-c1ncc(CN2C[C@H](O)[C@@H](N3CCCC3)C2)s1` | 12.22 |
| `COCCNC(=O)NCCS(=O)(=O)N1CCN(c2cccc(C)c2)CC1` | 12.48 |
| `Cc1nn(CC(O)CN2CCC(C)CC2)c(=O)c(C#N)c1C` (centres undefined) | 0.3802 |
| `CC(CNCc1ccc(Cl)cc1)Oc1ccccn1.Cl` (centres undefined) | 6.034 |
| `CCN1CCn2c(C)cnc2C12CCN(C(=O)N(C)C)CC2.O=C(O)C(F)(F)F.O=C(O)C(F)(F)F` | -5.367 & -4.575 |
| `CCC(=O)N1CCCC1(C)c1nc(C)no1` (centres undefined) | -6.365 & 1.45 |
| `CC(C)OC(=O)CN1N=C(C(=O)N2CCCC2)S(=O)(=O)c2ccccc21` | -10.66 |
| `CC(C(=O)NCc1ccnc(Oc2ccc(F)cc2)c1)n1cncn1` (centres undefined) | 5.551 |
| `CCOc1nnc(CN(CC)CC(=O)Nc2c(F)cccc2F)s1` | -2.387 & -1.723 |
| `COc1cc(CNCC(O)c2ccc(C)cc2)cc2c1OCCO2.Cl` (centres undefined) | 0.9855 |
| `COCCN(C)C(=O)c1nc2c(s1)CCCN2S(C)(=O)=O` | -6.226 |
| `Cc1noc(CNc2ccccc2CC(=O)N(C)C)n1` | -18.92 |
| `COc1ccc(CCCN(C)C(=O)c2cc(Cl)c[nH]2)cc1OC` | 8.396 |
| `Cc1ccccc1S(=O)(=O)Cc1nsc(N(C)C)n1` | 8.787 |
| `O=C(c1cccc2[nH]ncc12)N1CCCC1c1noc(C2CC2)n1` (centres undefined) | -11.33 |
| `Cc1[nH]ccc1C(=O)N1CCOCC12CCCC2` | -9.122 & -1.545 |
| `O=C1CCCN1Cc1ncn2c1CN(S(=O)(=O)c1cccs1)CCC2` | -6.213 |
| `Cc1nc(CN2CCOCC3(CCN(c4ncccn4)CC3)C2)cs1.O=C(O)C(F)(F)F` | 7.622 |
| `Cc1cnc(CN2CC=C(c3c[nH]c4ncccc34)CC2)o1` | 17.25 |
| `O=C(Nc1ccc(S(=O)(=O)Nc2ccccc2)cc1)N1CCCC1` | 3.715 |
| `CSCCC(=O)NCc1cc2n(n1)CCN(C(=O)N(C)C)C2` | -19.46 |
| `COc1cccc(C(=O)N2CCC3(CCC(=O)N(C(C)C)C3)CC2)c1C` | 2.646 |
| `COc1ccccc1CC(C)N(C)CCS(C)(=O)=O` (centres undefined) | 1.078 |
| `Cn1c(NCC(O)c2ccccc2F)c(C#N)c(=O)n(C)c1=O` (centres undefined) | 1.129 |
| `OC1(CNc2ccc(F)cc2)CCNCC1` | -1.771 |
| `CCOc1cccc(C2CC(=O)NCc3nc(N4CCCC4)sc32)c1` (centres undefined) | 0.2382 |
| `[H][C@@]12C[C@@H](C(=O)NC)N(C(C)=O)[C@]1([H])CN(Cc1ccc(C)o1)C2` | -17.71 |
| `CN(CCCOc1ccccc1Cl)C(=O)CN1C(=O)CCNC1=O` | -10.05 |
| `CN(C)S(=O)(=O)N1CCCC(C)(c2ncc(C(N)=O)s2)C1` (centres undefined) | -3.517 |
| `COCCN1CCc2cc(C(=O)O)c(NCC3CC3)nc2CC1.O=C(O)C(F)(F)F.O=C(O)C(F)(F)F` | -9.789 |
| `CCOc1ccc(Oc2cc(CN)ccn2)cc1` | 33.43 |
| `CCc1nc(CN2CCCN(C(=O)c3cncnc3C)CC2)cs1` | -0.1891 |

Once more, the final 9:

For Cn1c(NCC(O)c2ccccc2F)c(C#N)c(=O)n(C)c1=O (centres undefined) the result was 1.129%.
For OC1(CNc2ccc(F)cc2)CCNCC1 the result was -1.771%.
For CCOc1cccc(C2CC(=O)NCc3nc(N4CCCC4)sc32)c1 (centres undefined) the result was 0.2382%.
For [H][C@@]12C[C@@H](C(=O)NC)N(C(C)=O)[C@]1([H])CN(Cc1ccc(C)o1)C2 the result was -17.71%.
For CN(CCCOc1ccccc1Cl)C(=O)CN1C(=O)CCNC1=O the result was -10.05%.
For CN(C)S(=O)(=O)N1CCCC(C)(c2ncc(C(N)=O)s2)C1 (centres undefined) the result was -3.517%.
For COCCN1CCc2cc(C(=O)O)c(NCC3CC3)nc2CC1.O=C(O)C(F)(F)F.O=C(O)C(F)(F)F the result was -9.789%.
For CCOc1ccc(Oc2cc(CN)ccn2)cc1 the result was 33.43%.
For CCc1nc(CN2CCCN(C(=O)c3cncnc3C)CC2)cs1 the result was -0.1891%.

From ChEMBL document CHEMBL3988442, “University of Dundee, Small-Polar-MMV Screening Library” (2021).